The campaign covered roughly 330,000 compounds. About 7,700 (2.3%) were called active. The inconclusive results got no clear call from the source; some entries with a clear call stand among them for comparison. Calls come from the whole dose curve; as a rule, active = well fitted inhibition curve with a large enough effect; inconclusive = small, poorly fitted or top-dose-only effect, or effect the other way; inactive = flat fitted curve, though single readings scatter. A potency beside an inconclusive call is a rough fit, not a confirmed value.
Test: qHTS screen for small molecules that inhibit ELG1-dependent DNA repair in human embryonic kidney (HEK293T) cells expressing luciferase-tagged ELG1; note: nearly all actives have a fitted effect of over 55% in size
Settings: HEK293T ELG1-luciferase reporter, luminescence, 16 h, DNA damage induced by 5-fluorouridine; activity change, negative = inhibition: at 46.1 µM (top of the series)
Method in brief: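 Cells (2,000 per well) received 5-fluorouridine plus test compound or DMSO and were incubated 16 hr at 37 °C, 5% CO2. Luciferase activity was read by luminescence 30 min after ONE-Glo addition; signal suppression marked inhibition of damage-induced ELG1 function.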
In the case of `CCOC(=O)C1(CC2CCCCO2)CCN(Cc2nc(C(C)C)cs2)CC1` (stereo not drawn), the Potency is reported as inconclusive: 25.9 µM [activator, partial curve, poor fit]. With `COc1ccc(C(c2sc3ncnn3c2O)N2CCN(c3ccccc3F)CC2)cc1OC` (stereo not drawn) the Potency was inconclusive: 10.3 µM [activator, partial curve]. For `Cc1cccc(NC(=O)C2CCN(C(=O)N3CCOc4ccccc43)CC2)c1C`, the “activity change, negative = inhibition” value was inactive: -0.747%. In the case of `Cc1cc(C)c(NC(=O)Nc2ccc3c(c2)OCO3)c(C)c1`, the Potency is reported as inconclusive: 14.6 µM [activator, partial curve]. With `Cc1cc(NC(=O)COC(=O)COc2cccc3c2OC(C)(C)C3)no1` the “activity change, negative = inhibition” value was inactive: -2.76%. With `O=C(NCCS(=O)(=O)N1CCN(c2ccccc2)CC1)C1CC1` the “activity change, negative = inhibition” value was inactive: 18.4%. For `N#C/C(=C\c1ccc(-c2nc3ccccc3s2)o1)C(N)=O`, the Potency was inconclusive: 20.6 µM [activator, partial curve]. With `C[C@H](CO)N1C[C@H](C)[C@@H](CN(C)S(=O)(=O)c2ccccc2)Oc2ccc(NS(=O)(=O)c3cccs3)cc2C1=O` the Potency was inconclusive: 13 µM [inhibitor, partial curve]. With `O=C(Nc1nnc(-c2ccc(Cl)cc2)o1)c1cccc(N2C(=O)CCC2=O)c1` the “activity change, negative = inhibition” value was inactive: 13%. For `O=C(O)CC(CC(=O)Nc1ccc(-n2ccc(C(F)(F)F)n2)cc1)c1ccccc1` (stereo not drawn), the “activity change, negative = inhibition” value was inactive: -2.08%. With `CCN(CC)P(=O)(Nc1ccccc1Br)c1ccc(N(C)C)cc1NC(=O)c1ccco1` (stereo not drawn) the Potency was inconclusive: 20.6 µM [inhibitor, single point]. In the case of `CC(=O)c1ccc(N(C)C)cc1`, the “activity change, negative = inhibition” value is reported as inactive: 14.5%. For `O=C1c2cccc3cccc(c23)C(=O)N1CC1CCN(CC(O)COCc2ccc3c(c2)OCO3)CC1` (stereo not drawn), the Potency was inconclusive: 29.1 µM [inhibitor, single point]. For `CCN(CC)CCNC(=O)c1ccc(NC(=O)C2CCN(c3ncnc4sc(C)c(C)c34)CC2)cc1`, the Potency was inconclusive: 20.6 µM [inhibitor, single point]. With `Cc1cc(C(=O)Nc2sc3c(c2C#N)CCC(C)C3)cs1` (stereo not drawn) the Potency was inconclusive: 2.31 µM [activator, partial curve]. With `Cc1nn(-c2ccccc2)c(C)c1/C=C/C(=O)OCC(=O)Nc1ccc(C(N)=O)cc1` the Potency was inconclusive: 29.1 µM [activator, partial curve, poor fit]. In the case of `CC(=O)NCCc1nc2ccccc2n1CCOc1ccc(C)cc1`, the “activity change, negative = inhibition” value is reported as inactive: -20.9%. In the case of `COC(=O)C(Cc1ccc(O)cc1)NC(=O)CCc1nc2ccccc2s1` (stereo not drawn), the Potency is reported as inconclusive: 20.6 µM [inhibitor, single point]. With `CC(=O)c1ccc(S(=O)(=O)N(C)CC(=O)NCc2ccco2)cc1` the Potency was inconclusive: 20.6 µM [activator, single point]. In the case of `Cc1cccc(N(Cc2ccccc2)C(=O)CN2C(=O)NC3(CCCC3)C2=O)c1`, the “activity change, negative = inhibition” value is reported as inactive: -2.56%. For `O=C(c1cccc(S(=O)(=O)N2CCc3ccccc32)c1)N1CCN(c2ccccn2)CC1`, the Potency was inconclusive: 6.51 µM [activator, single point]. In the case of `CCOc1c(Cl)cc(CNc2ccc(N3CCCC3)cc2)cc1OC`, the Potency is reported as inconclusive: 20.6 µM [activator, single point]. With `COc1cc(-c2nc(S(=O)(=O)c3ccc(C)cc3)c(N3CCOCC3)o2)cc(OC)c1OC` the Potency was inconclusive: 2.06 µM [inhibitor, full curve, poor fit]. With `O=C(Nc1cccc(-c2nc3cc(Cl)ccc3o2)c1)C1CCCO1` (stereo not drawn) the Potency was inconclusive: 25.9 µM [activator, single point]. With `O=C(CCNS(=O)(=O)c1ccccc1)OCC(=O)c1ccc(Cl)cc1` the Potency was inconclusive: 0.58 µM [inhibitor, partial curve, poor fit]. In the case of `CN(C)S(=O)(=O)c1ccc(C(=O)Nc2ccn(C)n2)cc1`, the Potency is reported as inconclusive: 20.6 µM [activator, single point]. In the case of `CC1=C(C(=O)OCc2cc(C)on2)N2C(=O)[C@@H](NC(=O)OCc3cc(C)on3)[C@H]2SC1`, the “activity change, negative = inhibition” value is reported as inactive: 5.22%. With `COC(=O)c1c(C)[nH]c(C(=O)OCc2ccc(F)cc2)c1C` the Potency was inconclusive: 2.31 µM [activator, full curve]. For `O=C(O)c1ccccc1C(=O)Nc1ccc(Br)c2cccnc12`, the “activity change, negative = inhibition” value was inactive: 10.7%. For `Cc1ccc(-c2noc(CCCC(=O)NC3CCCCC3)n2)cc1`, the Potency was inconclusive: 13 µM [inhibitor, partial curve, poor fit]. For `Cc1cccc(NCc2nc3ccccc3n2C)c1`, the Potency was inconclusive: 13 µM [activator, partial curve]. With `O=C(O)c1ccccc1Sc1c([N+](=O)[O-])cc(C(F)(F)F)cc1[N+](=O)[O-]` the “activity change, negative = inhibition” value was inactive: 27.4%. In the case of `O=C(Cc1cccc(NC(=O)C2CCN(C(=O)C3CCCCC3)CC2)c1)Nc1cccc(C(=O)N2CCCC2)c1`, the “activity change, negative = inhibition” value is reported as inactive: -26.3%. In the case of `COCCNC(=O)c1cc(-c2cccc(OC)c2)on1`, the Potency is reported as inconclusive: 2.06 µM [activator, full curve]. In the case of `O=C(Nc1ccccc1Cl)C1CC(=O)N(c2ccccc2)C1` (stereo not drawn), the “activity change, negative = inhibition” value is reported as inactive: 0%. In the case of `O=C(Nc1ccc2c(c1)CCCN2C(=O)c1ccco1)c1cc([N+](=O)[O-])ccc1Cl`, the Potency is reported as inconclusive: 9.2 µM [inhibitor, single point]. With `O=C(Nc1ccccc1)Nc1cccc(C(F)(F)F)c1` the “activity change, negative = inhibition” value was inactive: -13.2%. With `COc1ccc(N=c2scc(-c3ccc(S(=O)(=O)N4CCOCC4)cc3)n2CCCO)cc1` the Potency was active: 14.6 µM. For `CCS(=O)(=O)c1ccc2oc(SCC(=O)NC3CCCC(C)C3C)nc2c1` (stereo not drawn), the Potency was inconclusive: 18.4 µM [inhibitor, single point]. For `COc1ccc(CCNC(=O)COC(=O)C2CC2C)cc1OC` (stereo not drawn), the “activity change, negative = inhibition” value was inactive: -4.89%. With `C/C(N)=C(/C#N)C(=O)CSc1nnc(Nc2cccc(C)c2C)s1` the Potency was inconclusive: 14.6 µM [activator, single point]. With `Cc1cccc(N(C(=O)c2nsc(Cl)c2Cl)C(C(=O)NC2CCCC2)c2ccc(O)cc2)c1C` (stereo not drawn) the Potency was inconclusive: 20.6 µM [inhibitor, single point]. In the case of `CCCOc1ccc(-c2csc(N)n2)cc1[N+](=O)[O-]`, the Potency is reported as inconclusive: 10.3 µM [activator, partial curve]. For `CCN(CC(=O)Nc1ccc(OC)cc1)C(=O)CCc1nc2ccccc2c(=O)[nH]1`, the “activity change, negative = inhibition” value was inactive: -1.23%. For `COCCn1c(=NC(=O)c2cc(Cl)sc2Cl)sc2cc(S(N)(=O)=O)ccc21`, the Potency was inconclusive: 20.6 µM [activator, partial curve, poor fit]. In the case of `O=C(NCCc1ccc(F)cc1)N1CCOCC1`, the Potency is reported as inconclusive: 29.1 µM [activator, single point]. For `COc1ccc(N2CCN(C(=O)CSc3nnc(-c4ccc5[nH]c(C)c(C)c5c4)o3)CC2)cc1`, the Potency was inconclusive: 29.1 µM [inhibitor, single point]. In the case of `O=C(C1CCCO1)N1CCN(c2c3c(nc4cc(-c5ccc(F)cc5)nn24)CCC3)CC1` (stereo not drawn), the Potency is reported as inconclusive: 16.4 µM [inhibitor, single point]. With `O=C(NNC(=O)c1cccs1)c1ccc(F)cc1` the Potency was inconclusive: 18.3 µM [activator, single point]. In the case of `Cc1ccc2sc(NNC(=O)c3cc(-c4cccs4)nc4ccccc34)nc2c1C`, the Potency is reported as inconclusive: 13 µM [inhibitor, partial curve]. For `CC(=O)Nc1ccc(S(=O)(=O)n2cnc3cc(C)c(C)cc32)cc1`, the Potency was inconclusive: 16.4 µM [inhibitor, partial curve]. With `COc1ccc(S(=O)(=O)Nc2ccc3oc4ncccc4c(=O)c3c2)cc1OC` the Potency was inconclusive: 25.9 µM [inhibitor, partial curve, poor fit]. For `COc1ccccc1CNS(=O)(=O)c1ccc(N2CCCC2)cc1Br`, the Potency was inconclusive: 13 µM [inhibitor, partial curve, poor fit]. In the case of `Cc1ccc(N=Nc2c(=O)[nH]n3c(=O)cc(C)[nH]c23)cc1`, the Potency is reported as inconclusive: 29.1 µM [activator, single point]. For `CN1CCN(C(=O)c2cc(-c3ccco3)on2)CC1`, the Potency was inconclusive: 20.6 µM [activator, partial curve]. With `CN(C(=O)COc1ccc(Cl)cc1Cl)C1(C)CCS(=O)(=O)C1` (stereo not drawn) the “activity change, negative = inhibition” value was inactive: -7.86%. With `Cc1ccccc1NC(=O)CSc1nnnn1C` the Potency was inconclusive: 12.6 µM [activator, partial curve, poor fit]. For `CCc1cccc(NC(=O)COC(=O)c2cc([N+](=O)[O-])ccc2N2CCOCC2)c1`, the Potency was inconclusive: 11.6 µM [inhibitor, partial curve, poor fit]. In the case of `O=C(CCS(=O)(=O)c1ccccc1)Nc1ccc2c(c1)OCO2`, the Potency is reported as inconclusive: 16.4 µM [activator, partial curve]. With `O=[N+]([O-])c1ccc(O)c(/C=N/n2cnc3ccccc32)c1` the Potency was active: 20.6 µM. For `Cn1c(NCc2ccccc2)nc2c1c(=O)n(Cc1ccccc1)c(=O)n2C`, the Potency was inconclusive: 23.1 µM [inhibitor, single point]. In the case of `CCOc1c(Br)cc(CNc2ccc3c(c2)OCCO3)cc1OC`, the Potency is reported as inconclusive: 29.1 µM [activator, single point]. For `COc1cccc(NC(=O)NCc2c(-c3ccccc3)noc2C)c1`, the Potency was inconclusive: 0.366 µM [activator, partial curve, poor fit]. For `CC1CCN(CC(=O)Nc2ccccc2Sc2ccccc2)CC1`, the “activity change, negative = inhibition” value was inactive: -19.6%. With `CC(NC(=O)c1cc(S(=O)(=O)N2CCOCC2)ccc1N1CCCC1)c1ccc(Cl)c(Cl)c1` (stereo not drawn) the “activity change, negative = inhibition” value was inactive: -12.3%. In the case of `COC(=O)c1ccc(N2CCN(c3ccccc3)CC2)c(N)c1`, the Potency is reported as inconclusive: 14.6 µM [activator, single point]. For `CCOc1ccc(NC(=O)COC(=O)CN2CCCCCC2=O)cc1`, the “activity change, negative = inhibition” value was inactive: -1.63%. With `c1ccc(-n2cc(CNCCc3cscn3)c(-c3ccc4c(c3)OCO4)n2)cc1` the “activity change, negative = inhibition” value was inactive: -15%.
% is set by controls: 0 for no effect and ±100 for the full control effect; potency is the fitted concentration of half-maximal effect.
